The list shows a part of the results.
Compound: Cc1cc(ccc1-c1ccccc1)C(=O)N1CCCN(CC1)C(=O)CCl [compound 10]
Assay: probe-labelled cysteine peptide fold change vs DMSO (competition) (log2 fold change); higher = less target engagement (more negative = stronger competition)
Conditions: THP-1, incubation time: 4 h
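Also: competitive profiling in live THP-1 cells: cysteine peptides tagged with an iodoacetamide desthiobiotin (IA-DTB) probe, intensity after compound treatment relative to DMSO-treated cells.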

Amino acid sequences for entries named in this document (tags omitted). A change or cut given only in a name is not applied to a line headed by its entry.
UniProt O60701: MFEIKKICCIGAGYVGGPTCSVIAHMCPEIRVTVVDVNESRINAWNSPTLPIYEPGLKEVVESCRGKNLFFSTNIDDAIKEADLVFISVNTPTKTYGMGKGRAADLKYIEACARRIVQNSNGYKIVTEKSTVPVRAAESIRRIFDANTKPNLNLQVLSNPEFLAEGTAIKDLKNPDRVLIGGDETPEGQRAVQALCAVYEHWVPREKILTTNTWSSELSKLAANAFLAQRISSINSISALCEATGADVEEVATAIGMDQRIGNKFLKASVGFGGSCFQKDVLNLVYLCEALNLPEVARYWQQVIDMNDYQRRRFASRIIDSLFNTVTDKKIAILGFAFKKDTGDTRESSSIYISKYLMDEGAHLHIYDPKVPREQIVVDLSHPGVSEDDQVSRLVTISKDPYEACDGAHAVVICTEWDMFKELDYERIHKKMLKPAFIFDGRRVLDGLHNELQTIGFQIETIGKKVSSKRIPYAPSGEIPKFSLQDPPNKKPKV
UniProt Q9Y4E8: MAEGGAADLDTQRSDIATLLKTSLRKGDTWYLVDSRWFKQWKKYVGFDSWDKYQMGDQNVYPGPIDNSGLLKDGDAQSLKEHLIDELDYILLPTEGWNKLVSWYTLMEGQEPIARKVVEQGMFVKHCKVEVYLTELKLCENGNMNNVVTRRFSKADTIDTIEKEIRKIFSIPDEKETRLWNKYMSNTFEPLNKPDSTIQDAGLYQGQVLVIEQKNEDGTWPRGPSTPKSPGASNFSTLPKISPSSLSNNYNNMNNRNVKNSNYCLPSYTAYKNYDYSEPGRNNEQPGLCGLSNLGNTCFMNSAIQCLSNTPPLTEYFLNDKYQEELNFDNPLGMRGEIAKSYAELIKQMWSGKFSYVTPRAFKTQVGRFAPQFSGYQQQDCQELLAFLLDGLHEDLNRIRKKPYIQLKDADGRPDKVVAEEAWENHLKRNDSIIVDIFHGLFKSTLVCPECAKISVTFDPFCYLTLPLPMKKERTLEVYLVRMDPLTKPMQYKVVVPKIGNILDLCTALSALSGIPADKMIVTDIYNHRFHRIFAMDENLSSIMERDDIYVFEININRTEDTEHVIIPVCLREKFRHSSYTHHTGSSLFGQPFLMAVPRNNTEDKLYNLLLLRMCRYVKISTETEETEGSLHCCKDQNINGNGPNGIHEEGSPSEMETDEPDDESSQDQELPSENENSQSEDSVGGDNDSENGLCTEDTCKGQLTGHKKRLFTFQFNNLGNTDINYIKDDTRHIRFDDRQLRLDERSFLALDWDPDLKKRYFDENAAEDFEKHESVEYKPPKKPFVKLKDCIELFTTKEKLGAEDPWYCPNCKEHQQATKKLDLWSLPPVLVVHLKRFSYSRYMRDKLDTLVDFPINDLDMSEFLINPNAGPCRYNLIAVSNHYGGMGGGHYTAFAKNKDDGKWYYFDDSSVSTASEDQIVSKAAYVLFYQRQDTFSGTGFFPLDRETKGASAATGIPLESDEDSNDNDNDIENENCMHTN
UniProt Q9Y5T5, whole entry, looked up: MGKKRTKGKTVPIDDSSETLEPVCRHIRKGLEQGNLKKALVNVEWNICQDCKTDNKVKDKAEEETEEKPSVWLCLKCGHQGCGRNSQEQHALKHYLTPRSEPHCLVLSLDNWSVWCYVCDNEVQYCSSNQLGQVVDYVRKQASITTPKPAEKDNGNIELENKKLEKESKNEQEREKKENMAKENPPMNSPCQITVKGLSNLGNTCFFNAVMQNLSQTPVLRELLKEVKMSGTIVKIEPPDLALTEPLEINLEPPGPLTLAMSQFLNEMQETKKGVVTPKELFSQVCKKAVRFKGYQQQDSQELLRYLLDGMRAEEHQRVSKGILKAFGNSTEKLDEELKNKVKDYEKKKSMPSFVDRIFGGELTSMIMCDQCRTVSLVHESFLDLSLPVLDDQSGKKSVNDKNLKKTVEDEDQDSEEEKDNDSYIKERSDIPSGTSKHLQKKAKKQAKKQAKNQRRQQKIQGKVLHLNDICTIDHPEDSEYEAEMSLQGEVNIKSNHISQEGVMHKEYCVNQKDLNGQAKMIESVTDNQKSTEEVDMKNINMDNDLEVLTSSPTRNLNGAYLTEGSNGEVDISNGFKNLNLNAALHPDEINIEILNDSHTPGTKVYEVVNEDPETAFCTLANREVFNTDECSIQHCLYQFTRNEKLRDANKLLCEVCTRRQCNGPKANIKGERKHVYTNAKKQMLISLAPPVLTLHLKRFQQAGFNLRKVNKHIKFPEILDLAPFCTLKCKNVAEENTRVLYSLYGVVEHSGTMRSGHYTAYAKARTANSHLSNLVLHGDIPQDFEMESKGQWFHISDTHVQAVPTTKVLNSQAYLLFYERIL
UniProt Q6BDS2: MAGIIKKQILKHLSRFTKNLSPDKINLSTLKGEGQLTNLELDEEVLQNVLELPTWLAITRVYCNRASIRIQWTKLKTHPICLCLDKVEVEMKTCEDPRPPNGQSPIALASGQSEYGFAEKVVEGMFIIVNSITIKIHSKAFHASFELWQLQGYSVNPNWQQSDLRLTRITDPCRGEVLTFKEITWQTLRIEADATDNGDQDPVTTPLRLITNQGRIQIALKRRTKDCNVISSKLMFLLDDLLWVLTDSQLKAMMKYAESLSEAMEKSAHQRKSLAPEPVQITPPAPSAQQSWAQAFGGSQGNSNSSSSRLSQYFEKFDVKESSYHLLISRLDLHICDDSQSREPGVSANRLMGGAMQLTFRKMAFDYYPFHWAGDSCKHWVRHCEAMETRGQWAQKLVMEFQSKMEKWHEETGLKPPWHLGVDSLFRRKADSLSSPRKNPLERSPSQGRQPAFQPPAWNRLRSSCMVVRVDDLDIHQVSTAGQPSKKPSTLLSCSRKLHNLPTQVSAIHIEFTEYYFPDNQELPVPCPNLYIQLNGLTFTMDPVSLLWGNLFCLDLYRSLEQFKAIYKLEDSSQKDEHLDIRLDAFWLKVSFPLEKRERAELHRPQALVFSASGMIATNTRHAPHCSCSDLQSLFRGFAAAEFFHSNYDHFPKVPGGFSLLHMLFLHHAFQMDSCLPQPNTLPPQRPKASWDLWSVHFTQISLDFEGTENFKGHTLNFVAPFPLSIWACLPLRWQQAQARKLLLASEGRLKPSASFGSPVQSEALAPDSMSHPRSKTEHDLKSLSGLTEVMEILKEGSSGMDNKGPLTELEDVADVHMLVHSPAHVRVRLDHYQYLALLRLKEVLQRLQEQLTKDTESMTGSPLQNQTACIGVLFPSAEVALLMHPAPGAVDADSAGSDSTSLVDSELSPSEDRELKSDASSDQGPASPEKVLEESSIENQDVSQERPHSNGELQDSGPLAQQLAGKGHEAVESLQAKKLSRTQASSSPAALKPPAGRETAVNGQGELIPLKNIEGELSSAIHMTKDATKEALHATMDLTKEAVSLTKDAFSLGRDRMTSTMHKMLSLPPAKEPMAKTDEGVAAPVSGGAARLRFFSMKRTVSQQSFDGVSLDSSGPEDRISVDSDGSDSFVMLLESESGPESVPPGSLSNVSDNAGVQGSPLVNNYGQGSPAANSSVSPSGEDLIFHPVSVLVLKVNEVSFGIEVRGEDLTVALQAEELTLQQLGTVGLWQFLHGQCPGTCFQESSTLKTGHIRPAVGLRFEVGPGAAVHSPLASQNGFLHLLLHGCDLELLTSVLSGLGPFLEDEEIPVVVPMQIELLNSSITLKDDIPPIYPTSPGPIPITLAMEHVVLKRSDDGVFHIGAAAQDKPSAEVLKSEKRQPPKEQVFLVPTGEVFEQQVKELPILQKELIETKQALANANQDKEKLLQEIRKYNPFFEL
UniProt Q93009, whole entry, looked up: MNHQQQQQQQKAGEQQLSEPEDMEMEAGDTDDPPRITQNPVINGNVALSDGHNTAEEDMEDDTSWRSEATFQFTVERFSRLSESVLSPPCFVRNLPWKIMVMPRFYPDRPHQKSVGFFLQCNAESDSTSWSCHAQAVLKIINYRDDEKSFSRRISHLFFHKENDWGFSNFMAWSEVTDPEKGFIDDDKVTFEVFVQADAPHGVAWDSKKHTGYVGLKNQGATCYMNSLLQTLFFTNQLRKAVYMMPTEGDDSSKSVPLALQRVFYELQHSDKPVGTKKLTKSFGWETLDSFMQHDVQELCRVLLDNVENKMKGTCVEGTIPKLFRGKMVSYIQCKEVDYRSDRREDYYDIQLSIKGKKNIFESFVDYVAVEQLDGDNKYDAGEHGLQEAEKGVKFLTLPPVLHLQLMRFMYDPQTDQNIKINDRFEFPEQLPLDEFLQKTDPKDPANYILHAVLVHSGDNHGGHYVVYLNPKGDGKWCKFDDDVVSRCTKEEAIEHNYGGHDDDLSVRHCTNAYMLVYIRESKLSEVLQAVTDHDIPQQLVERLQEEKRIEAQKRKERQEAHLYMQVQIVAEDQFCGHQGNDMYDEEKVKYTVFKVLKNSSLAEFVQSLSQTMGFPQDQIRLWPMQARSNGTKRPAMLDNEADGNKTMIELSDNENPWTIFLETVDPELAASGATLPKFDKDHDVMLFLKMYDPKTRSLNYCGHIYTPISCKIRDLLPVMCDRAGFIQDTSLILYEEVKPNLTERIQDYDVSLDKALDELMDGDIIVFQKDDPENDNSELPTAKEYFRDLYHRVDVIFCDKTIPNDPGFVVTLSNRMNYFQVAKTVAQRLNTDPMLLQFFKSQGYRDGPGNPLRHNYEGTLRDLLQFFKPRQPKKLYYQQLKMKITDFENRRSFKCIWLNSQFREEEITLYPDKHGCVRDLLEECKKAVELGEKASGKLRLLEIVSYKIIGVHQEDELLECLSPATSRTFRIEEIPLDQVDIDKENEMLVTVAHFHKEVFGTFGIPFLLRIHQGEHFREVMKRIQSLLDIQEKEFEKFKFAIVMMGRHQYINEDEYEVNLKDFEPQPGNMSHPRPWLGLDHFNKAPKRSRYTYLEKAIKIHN
UniProt Q86UV5: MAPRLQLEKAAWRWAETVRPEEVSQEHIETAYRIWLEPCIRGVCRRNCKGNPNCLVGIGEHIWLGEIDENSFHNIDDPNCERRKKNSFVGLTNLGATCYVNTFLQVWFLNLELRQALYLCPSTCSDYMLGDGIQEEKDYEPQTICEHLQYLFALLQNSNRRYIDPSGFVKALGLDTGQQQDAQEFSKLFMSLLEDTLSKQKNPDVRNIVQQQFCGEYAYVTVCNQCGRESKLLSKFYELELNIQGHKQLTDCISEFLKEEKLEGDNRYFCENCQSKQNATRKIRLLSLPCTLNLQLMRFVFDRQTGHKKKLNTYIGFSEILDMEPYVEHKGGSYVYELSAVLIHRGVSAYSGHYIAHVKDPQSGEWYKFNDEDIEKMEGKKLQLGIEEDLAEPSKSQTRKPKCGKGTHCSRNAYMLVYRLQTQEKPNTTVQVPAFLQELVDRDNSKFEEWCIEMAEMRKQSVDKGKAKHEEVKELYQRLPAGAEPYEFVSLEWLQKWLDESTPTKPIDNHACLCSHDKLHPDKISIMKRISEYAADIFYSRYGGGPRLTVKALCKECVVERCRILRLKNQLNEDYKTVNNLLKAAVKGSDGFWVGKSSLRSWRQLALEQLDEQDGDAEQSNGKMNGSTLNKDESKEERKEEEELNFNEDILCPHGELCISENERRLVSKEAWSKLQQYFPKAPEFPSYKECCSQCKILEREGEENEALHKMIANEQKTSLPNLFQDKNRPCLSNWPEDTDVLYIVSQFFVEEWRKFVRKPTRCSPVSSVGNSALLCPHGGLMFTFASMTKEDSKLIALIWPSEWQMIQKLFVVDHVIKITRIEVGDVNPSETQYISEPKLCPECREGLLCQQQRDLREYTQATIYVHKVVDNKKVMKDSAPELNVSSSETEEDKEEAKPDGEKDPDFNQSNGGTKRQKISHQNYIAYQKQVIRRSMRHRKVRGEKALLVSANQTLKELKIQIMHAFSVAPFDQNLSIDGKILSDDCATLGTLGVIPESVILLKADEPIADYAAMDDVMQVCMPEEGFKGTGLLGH
UniProt Q96RL1: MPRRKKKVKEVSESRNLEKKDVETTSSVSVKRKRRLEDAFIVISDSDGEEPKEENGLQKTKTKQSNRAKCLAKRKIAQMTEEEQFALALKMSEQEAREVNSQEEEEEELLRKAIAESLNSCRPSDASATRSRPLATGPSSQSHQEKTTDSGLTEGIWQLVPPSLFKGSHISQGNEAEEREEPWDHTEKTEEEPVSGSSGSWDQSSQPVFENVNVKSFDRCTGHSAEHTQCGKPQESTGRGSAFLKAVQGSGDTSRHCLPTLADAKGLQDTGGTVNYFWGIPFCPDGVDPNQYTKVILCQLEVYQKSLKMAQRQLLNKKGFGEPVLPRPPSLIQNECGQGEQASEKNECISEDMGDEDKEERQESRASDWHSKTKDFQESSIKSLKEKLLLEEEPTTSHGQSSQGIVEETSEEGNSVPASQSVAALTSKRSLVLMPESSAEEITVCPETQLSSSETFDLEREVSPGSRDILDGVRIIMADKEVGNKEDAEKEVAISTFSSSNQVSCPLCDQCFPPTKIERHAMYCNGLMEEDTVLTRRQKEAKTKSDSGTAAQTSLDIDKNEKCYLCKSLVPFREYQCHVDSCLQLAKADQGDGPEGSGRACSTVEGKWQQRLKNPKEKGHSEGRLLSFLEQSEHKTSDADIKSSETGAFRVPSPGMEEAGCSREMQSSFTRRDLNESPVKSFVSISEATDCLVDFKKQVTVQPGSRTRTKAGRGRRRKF

Target | probe-labelled cysteine peptide fold change (10 µM) | probe-labelled cysteine peptide fold change (50 µM)
UNC45A_Q9H3U1_118_CVSLEPK (UniProt Q9H3U1) | 0.296 | -0.144
USP8_P40818_988_FYCSHCR (UniProt P40818) | 0.125 | 0.0448
URB1_O60287_78_ISVECVEIFQLLSGEK (UniProt O60287) | 0.0336 | 0.776
USP47_Q96K76_314_CLECGYEGWR (UniProt Q96K76) | 0.156 | -0.0797
UPF2_Q9HAU5_641_LVATLHPCMSDVAEDLCSMLR (UniProt Q9HAU5) | 0.128 | -0.0764
UGDH_O60701_64_EVVESCR (UniProt O60701) | 0.0863 | 0.0261
USP37_Q86T82_538_AEELEYSCEK (UniProt Q86T82) | 0.0939 | -0.0626
USP15_Q9Y4E8_633+634_ISTETEETEGSLHCCK (UniProt Q9Y4E8) | -0.567 | -1.51
UPF2_Q9HAU5_226_ISDVNCAVHLCSLFHQR (UniProt Q9HAU5) | 0.072 | 0.108
USP8_P40818_985+988_FYCSHCR (UniProt P40818) | 0.101 | -0.313
USP16_Q9Y5T5_205_GLSNLGNTCFFNAVMQNLSQTPVLR (UniProt Q9Y5T5) | -0.823 | -0.481
UGDH_O60701_288_DVLNLVYLCEALNLPEVAR (UniProt O60701) | 0.369 | 0.497
USP3_Q9Y6I4_385_SFTDLEELDETELYMCHK (UniProt Q9Y6I4) | -0.114 | -0.984
UHRF1BP1_Q6BDS2_494_KPSTLLSCSR (UniProt Q6BDS2) | 0.0804 | 0.0109
UHRF1BP1_Q6BDS2_336_LDLHICDDSQSREPGVSANR (UniProt Q6BDS2) | -0.0091 | 0.182
USP7_Q93009_702_SLNYCGHIYTPISCK (UniProt Q93009) | 0.0209 | -0.228
USP24_Q9UPU5_179_CMPEAFKK (UniProt Q9UPU5) | -0.148 | -0.216
USP48_Q86UV5_290_LLSLPCTLNLQLMR (UniProt Q86UV5) | -0.148 | -0.403

Two entries drawn at random from the list so far:
Target | probe-labelled cysteine peptide fold change (10 µM) | probe-labelled cysteine peptide fold change (50 µM)
USP16_Q9Y5T5_205_GLSNLGNTCFFNAVMQNLSQTPVLR (UniProt Q9Y5T5) | -0.823 | -0.481
USP48_Q86UV5_290_LLSLPCTLNLQLMR (UniProt Q86UV5) | -0.148 | -0.403

Further entries.

Target | probe-labelled cysteine peptide fold change (10 µM) | probe-labelled cysteine peptide fold change (50 µM)
UNG_P13051_166_VVILGQDPYHGPNQAHGLCFSVQRPVPPPPSLENIYK (UniProt P13051) | 0.259 | 0.0594
UGDH_O60701_9+20_ICCIGAGYVGGPTCSVIAHMCPEIR (UniProt O60701) | 0.0362 | 0.0457
USP15_Q9Y4E8_570_DDIYVFEININRTEDTEHVIIPVCLR (UniProt Q9Y4E8) | 0.182 | 0.224
UNK_Q9C0B0_100_YDEATGLCPEGDECPFLHR (UniProt Q9C0B0) | 0.155 | 0.396
UIMC1_Q96RL1_121_AIAESLNSCRPSDASATR (UniProt Q96RL1) | -0.0681 | -0.0697
USP34_Q70CQ2_1380_CEELHLHAENLSR (UniProt Q70CQ2) | -0.386 | -0.282
UCHL5_Q9Y5K5_100_QVINNACATQAIVSVLLNCTHQDVHLGETLSEFK (UniProt Q9Y5K5) | 0.114 | -0.0951
UHRF2_Q96PU4_704_ASDSAEAIEAFQLTPQQQHLIREDCQNQK (UniProt Q96PU4) | 0.193 | -0.2
USP5_P45974_838_VCASEKPPK (UniProt P45974) | -0.108 | -0.197
UROD_P06132_66_SPEACCELTLQPLR (UniProt P06132) | -0.0974 | -0.254
UCHL5_Q9Y5K5_9_TGNAGEWCLMESDPGVFTELIK (UniProt Q9Y5K5) | -0.209 | 0.0293
UIMC1_Q96RL1_691_SFVSISEATDCLVDFKK (UniProt Q96RL1) | -0.218 | -0.239
USP9X_Q93008_1061_AICLDHAK (UniProt Q93008) | 0.267 | 0.565
UMPS_P11172_304_CHEFLIFEDRK (UniProt P11172) | 0.14 | -0.0767
URB1_O60287_315_ELVHNFLMDLCCSLK (UniProt O60287) | 0.17 | 0.0192
USP19_O94966_102_EGACEDPHDLLATPTPELLLDWR (UniProt O94966) | -0.326 | -0.135
USP7_Q93009_334_MVSYIQCK (UniProt Q93009) | -0.129 | 0.0485
USP4_Q13107_464_STLVCPECAK (UniProt Q13107) | -0.00729 | -0.134

— the supplement of paper PMC12067093, “Discovery and optimisation of a covalent ligand for TRIM25 and its application to targeted protein ubiquitination” (Chemical Science, 2025)
